Measured values reported in patent publication US11324825B2, “Synthetic retinoids (in cell modulation)” (University of Durham, priority 2016, dated 2022).
Entries after “also recorded” stand apart in the source; their conditions may differ.

Test system: HaCaT human keratinocyte cells
Experiment: Fixed cell imaging (localisation of compound fluorescence)
Type: cell-based
Conditions: 1 μM, 72 hours (FIG. 4)

With CC(C)N1CCC(C)(C)c2cc(C#Cc3ccc(/C=C/C(=O)O)cc3)ccc21 [DC324, (2E)-3-(4-2-[4,4-Dimethyl-1-(propan-2-yl)-1,2,3,4-tetrahydroquinolin-6-yl]ethynylphenyl)prop-2-enoic Acid] the “subcellular localisation of compound fluorescence” value was “localised to one side of the nucleus; also recorded: Some regions show overlap between the Golgi and DC324”.
